Data: article PMC7819943, “Rice protein-binding microarrays: a tool to detect cis-acting elements near promoter regions in rice”
The list shows a part of the results.

Each sequence was assayed against T1, OsSMF1 (Oryza sativa, UniProt Q6ZLB0 1-436) (assay: protein-binding microarray (RPBM); PBS, 2% BSA, 51.3 ng/ul salmon testes DNA, 50 uM zinc acetate, 200 nM TF, 25 C, 1 h; high values mean tight binding). Conditions: protein: recombinant; tags: N-terminal polyhistidine and DsRed monomer fusion (pET32a); chain copies: 2; label: CyDye5-dUTP incorporated in the synthesized complementary strand; 3' TTTTT single-stranded linker to array surface; dsDNA, one strand shown.
T1 sequence: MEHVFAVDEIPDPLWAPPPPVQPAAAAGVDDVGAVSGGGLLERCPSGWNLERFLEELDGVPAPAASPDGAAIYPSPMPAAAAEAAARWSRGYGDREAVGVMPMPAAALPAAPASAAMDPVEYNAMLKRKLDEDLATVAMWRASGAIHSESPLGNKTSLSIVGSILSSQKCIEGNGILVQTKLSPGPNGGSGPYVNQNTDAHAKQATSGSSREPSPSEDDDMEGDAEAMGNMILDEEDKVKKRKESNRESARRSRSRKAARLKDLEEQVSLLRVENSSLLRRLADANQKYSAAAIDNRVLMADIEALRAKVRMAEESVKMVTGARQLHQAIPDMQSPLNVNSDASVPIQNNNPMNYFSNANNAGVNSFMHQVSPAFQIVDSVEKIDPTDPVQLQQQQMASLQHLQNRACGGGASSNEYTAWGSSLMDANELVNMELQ
Summary of the method: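 Transcription factors were each fused at the N-terminus to a polyhistidine tag plus DsRed and expressed in E. coli BL21-CodonPlus before Ni–NTA purification. Binding to a double-stranded custom Agilent array was carried out with 200 nM protein at 25 °C for 1 h in PBS, 2% BSA, salmon testes DNA and 50 µM zinc acetate. The binding signal is per-feature fluorescence intensity, in arbitrary units, on an Axon 4000B scanner.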

Sequence | binding signal
AACACGCAAAACTCTAATAATCCTGTCTATGTTTCTCTCTCGGAGTCACCTAGTGCAG | 30000 fluorescence intensity (a.u.)
CCGCCCGCCCGCTCTCCTCCTCCTACACGTGGGACCCACCCGGAGTCACCTAGTGCAG | 7850 fluorescence intensity (a.u.)
AAAATCAGCACGTCACTACGGCTATATATATAGTACACGTCGGAGTCACCTAGTGCAG | 6880 fluorescence intensity (a.u.)
CCGCGAGACGACGCGAGCGCACGCACGCCTGCACGCGCGGCGGAGTCACCTAGTGCAG | 3330 fluorescence intensity (a.u.)
CTTAGTCGCCATTTTCTTCCCATATCCACGCGCCACGTGGCGGAGTCACCTAGTGCAG | 25100 fluorescence intensity (a.u.)
AGAGCAAGACAAGATGGTTAGTTCTCACACTTCAGATTGTCGGAGTCACCTAGTGCAG | 41400 fluorescence intensity (a.u.)
ATGCGCCCATAATGGGCTGTCCTTGTCACGGGCTAAGCTACGGAGTCACCTAGTGCAG | 5620 fluorescence intensity (a.u.)
CAGAGGCAAACGTACGTGGAGGCAGGAGGAGTGGTCACCGCGGAGTCACCTAGTGCAG | 4440 fluorescence intensity (a.u.)
GTACAATTATCGTATTTCGCATAACCAACTCACATATGTTCGGAGTCACCTAGTGCAG | 4100 fluorescence intensity (a.u.)
GTCCTAGTCTAGTAGTAGTACTACGACGTAACAACACTTCCGGAGTCACCTAGTGCAG | 3640 fluorescence intensity (a.u.)
ATGTATGACGAGACGTACACGTAAGGGAACGTGCGGTAGGCGGAGTCACCTAGTGCAG | 6130 fluorescence intensity (a.u.)
GTTGTTAGATGATAAAACATGATTAATACTTTATGCGTGACGGAGTCACCTAGTGCAG | 13200 fluorescence intensity (a.u.)
TTTGCTATGTGATGTGTCCTGATGAACTTATGAAACGATGCGGAGTCACCTAGTGCAG | 3710 fluorescence intensity (a.u.)
CAAAGGACGATAACGGAGTAGCAGTTGGCGCAAGGTGCCACGGAGTCACCTAGTGCAG | 3990 fluorescence intensity (a.u.)
CTTCTTTTGCGAAATCCGTAACAATTCTACTACTATCATGCGGAGTCACCTAGTGCAG | 29700 fluorescence intensity (a.u.)
AATATAATGGCCGCTCGCTGATGGGTGCGTCATGCACCCTCGGAGTCACCTAGTGCAG | 4060 fluorescence intensity (a.u.)
GCGGTTGGAGGAAGACGACGTCACCCACCTTTTCCCCTTTCGGAGTCACCTAGTGCAG | 7550 fluorescence intensity (a.u.)
GGGCAGCGCTAACCCAAAGCTCCTGCGATTCCAAACCGACCGGAGTCACCTAGTGCAG | 64800 fluorescence intensity (a.u.)
AGTGTGTTTGTGCGTGTTTATAGGGTGAGCGTCTATATTTCGGAGTCACCTAGTGCAG | 3260 fluorescence intensity (a.u.)
AGTGTTCCTAGCTACAACGAGTGGTTTACTTTCTCATCCTCGGAGTCACCTAGTGCAG | 3270 fluorescence intensity (a.u.)
TGACCTGACCACCGGTCGTCGTCTTGGGTTGGCTTGGCTTCGGAGTCACCTAGTGCAG | 3250 fluorescence intensity (a.u.)

Sequence | binding signal
TGTTGGCTCCACGTACGGAATCCAGCCAGGCGCCAGTTGGCGGAGTCACCTAGTGCAG | 4100 fluorescence intensity (a.u.)
ACGCTTGGTGGGGTGGGGTGGTGCTGGTGCCATGAACTGCCGGAGTCACCTAGTGCAG | 4070 fluorescence intensity (a.u.)
ACGCAGCGGGCCAACTCCAACTCATCCCCAGCCTCCACCACGGAGTCACCTAGTGCAG | 4360 fluorescence intensity (a.u.)
ACTTATGACGATTAAAGTAACAGCGAGTAGTGAGTCAGTGCGGAGTCACCTAGTGCAG | 6720 fluorescence intensity (a.u.)
GGAGCGAGCGACGACGGACGGACGGAGACCTATCGGGTGGCGGAGTCACCTAGTGCAG | 33300 fluorescence intensity (a.u.)
TATTTATTTATTTTAATAATGCCGACAGTGAAGGAAACGTCGGAGTCACCTAGTGCAG | 3800 fluorescence intensity (a.u.)
CTTGCTTGGGCCGACGGTTAGGCGATTGACATGTGGGCCACGGAGTCACCTAGTGCAG | 3320 fluorescence intensity (a.u.)
TTTTCTTCCTTAGTTTTATTTACAGAGCTGGACGTTGCCACGGAGTCACCTAGTGCAG | 3220 fluorescence intensity (a.u.)
ATCTAACACTGCCTGCCAATGATCATGCATATACTAGTTACGGAGTCACCTAGTGCAG | 4520 fluorescence intensity (a.u.)
CACGGACTCGGCATCCCCGGGCCCACCAACACCGCCTCCGCGGAGTCACCTAGTGCAG | 3640 fluorescence intensity (a.u.)
ACCAAGGAACCCAAGTTCGCATTCACATATGAACAAATGCCGGAGTCACCTAGTGCAG | 3380 fluorescence intensity (a.u.)
ATGGGCCGGGGTTAATGTTTTGTGTCATTGTGTGTGAGACCGGAGTCACCTAGTGCAG | 3300 fluorescence intensity (a.u.)
CACTAACTAGGCTGCCCCGTCATCTTCTTCCTCCCGACGACGGAGTCACCTAGTGCAG | 11200 fluorescence intensity (a.u.)
TGGCCTTCTCTGACTCTGCCTCTTCTTCCAAACCAAGCCACGGAGTCACCTAGTGCAG | 3170 fluorescence intensity (a.u.)
GAAGTCCAAACCAGAAACCGAACCAAAACCCACGTCAGAACGGAGTCACCTAGTGCAG | 8790 fluorescence intensity (a.u.)
CACCCCTGCTGATGCGTCGCCGCCACCTTCTCTCCTTCCCCGGAGTCACCTAGTGCAG | 4220 fluorescence intensity (a.u.)
GGGCCCTAGATCCCATTTCGCCGACAAATACTACCTCATGCGGAGTCACCTAGTGCAG | 27600 fluorescence intensity (a.u.)
TGAGACATAGCAAACTCGCTAAAAGAGACCGTAATTAACCCGGAGTCACCTAGTGCAG | 3310 fluorescence intensity (a.u.)
TGGTGCTGGTCCTCAACATGCATGTGCTATGGCAAGATCCCGGAGTCACCTAGTGCAG | 42800 fluorescence intensity (a.u.)
TATCACATATGAGTTGATGACATGATTACTTGGGTTATCACGGAGTCACCTAGTGCAG | 3270 fluorescence intensity (a.u.)
CCGCCGACTCGACGCCACCACGTCGCCTCGCTGCGGCCGTCGGAGTCACCTAGTGCAG | 5370 fluorescence intensity (a.u.)

2 entries from above, as a markdown table.

| Sequence | binding signal |
| --- | --- |
| CCGCCCGCCCGCTCTCCTCCTCCTACACGTGGGACCCACCCGGAGTCACCTAGTGCAG | 7850 fluorescence intensity (a.u.) |
| CCGCCGACTCGACGCCACCACGTCGCCTCGCTGCGGCCGTCGGAGTCACCTAGTGCAG | 5370 fluorescence intensity (a.u.) |
